Values after ≈ are worked out from the molar mass of the structure shown.
System: C. albicans
Assay: Minimal inhibitory concentration (MIC) assay, broth microdilution
Settings: C. albicans ATCC 90028; MIC control compound value

C[C@@H]1[C@H](O)[C@@H](C)/C=C/C=C/C=C/C=C/C=C/C=C/C=C/[C@H](O[C@@H]2O[C@H](C)[C@@H](O)[C@H](N)[C@@H]2O)C[C@@H]2O[C@](O)(C[C@@H](O)C[C@@H](O)[C@H](O)CC[C@@H](O)C[C@@H](O)CC(=O)O[C@H]1C)C[C@H](O)[C@H]2C(=O)O [Amphotericin B]
MIC: 4.0 µg/mL (≈ 4.33 µM)
